Experimental data published in PubChem BioAssay AID588590 (National Center for Advancing Translational Sciences (NCATS), 2011).
Among all 390,000 compounds or so, about 4,000 (1%) were called active. The shares of active, inactive and inconclusive entries below differ from those in the screen. The call rests on the fitted dose curve; in most records, active means well fitted inhibition curve with a large enough effect; inconclusive means small, poorly fitted or top-dose-only effect, or another doubt; inactive means no such curve, though single readings can be large or run the other way. Potencies beside an inconclusive call are fits to weak or partial responses and may not hold up.
Potency means the concentration at half of the fitted maximal effect.

By UniProt entry, the sequences of proteins in these tests, tags left out. Where a name states a change or a piece, a line headed by the entry shows the natural chain unless it says otherwise.
UniProt Q9UNA4: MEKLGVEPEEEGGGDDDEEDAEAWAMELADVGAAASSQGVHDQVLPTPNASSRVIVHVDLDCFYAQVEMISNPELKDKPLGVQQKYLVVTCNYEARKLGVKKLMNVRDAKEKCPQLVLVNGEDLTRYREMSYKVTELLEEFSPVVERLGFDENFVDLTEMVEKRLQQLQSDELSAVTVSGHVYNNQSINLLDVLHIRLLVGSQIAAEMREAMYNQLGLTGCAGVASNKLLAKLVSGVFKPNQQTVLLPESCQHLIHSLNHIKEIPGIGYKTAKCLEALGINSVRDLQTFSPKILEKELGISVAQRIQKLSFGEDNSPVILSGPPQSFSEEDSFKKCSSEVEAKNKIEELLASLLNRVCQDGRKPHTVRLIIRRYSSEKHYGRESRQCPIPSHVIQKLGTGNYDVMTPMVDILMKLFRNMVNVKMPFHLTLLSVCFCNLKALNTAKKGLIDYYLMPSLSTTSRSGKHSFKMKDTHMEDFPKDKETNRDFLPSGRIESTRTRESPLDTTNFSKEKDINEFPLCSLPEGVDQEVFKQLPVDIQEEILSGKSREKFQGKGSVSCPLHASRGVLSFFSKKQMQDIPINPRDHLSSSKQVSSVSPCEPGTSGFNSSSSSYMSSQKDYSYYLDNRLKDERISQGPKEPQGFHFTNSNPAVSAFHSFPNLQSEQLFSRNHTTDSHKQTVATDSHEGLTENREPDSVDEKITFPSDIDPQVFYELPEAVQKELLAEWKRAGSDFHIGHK

These compounds were tested against DNA polymerase iota (Homo sapiens) (UniProt Q9UNA4) (assay: qHTS for Inhibitors of Polymerase Iota). Conditions: Pol iota fluorescent replication assay, 10 min; series mostly up to 115 µM.
Method in brief: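 Fluorescent replication assay read twice, at 0 min and 10 min after adding 50 nM (final) substrate. Enzyme (10 nM) and compounds were first incubated 15 min at room temperature; enzyme-free buffer wells were negative controls.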
In the case of `Cc1cc(/C=C(\C#N)C(=O)Nc2ccccc2)c(C)n1-c1cccnc1`, the Potency is reported as “inactive”.
In the case of `CCOc1ccc(CCNC(=O)C2CCN(c3nnc(-n4cccc4)s3)CC2)cc1`, the Potency is reported as inconclusive: 89.1 µM [inhibitor, single point].
`COCc1cc(=O)n2[nH]c(SCc3ccccc3)nc2n1` was tested, and the Potency was inconclusive: 7.94 µM [inhibitor, full curve, poor fit].
`O=C1CC(Cc2ccccc2)C(=O)N1Cc1ccco1` (stereo unspecified) was tested, and the Potency was inconclusive: 7.94 µM [inhibitor, partial curve, poor fit].
`O=C(NCc1ccccc1F)C1CCN(c2nnc(-n3cccc3)s2)CC1` was tested, and the Potency was inconclusive: 89.1 µM [inhibitor, single point].
With `CC(C)CN(C(=O)C1CCC1)c1c(N)n(Cc2ccccc2)c(=O)[nH]c1=O` the Potency was inconclusive: 7.94 µM [inhibitor, full curve, poor fit].
In the case of `COc1ccc(/C=C/C(=O)OCC(=O)NCc2ccco2)c(OC)c1`, the Potency is reported as inconclusive: 1.41 µM [inhibitor, partial curve, poor fit].
In the case of `O=c1[nH]c2ccc(S(=O)(=O)N3CCN(c4ccccc4)CC3)cc2[nH]c1=O`, the Potency is reported as active: 39.8 µM.
With `COc1cc2c(=O)c(C(=O)c3ccc(C)c(C)c3)cn(Cc3ccccc3F)c2cc1OC` the Potency was “inactive”.
`CCCn1c(=O)c2sccc2n2c(CCCC(=O)N3CCN(c4ccccc4OC)CC3)nnc12` was tested, and the Potency was “inactive”.
For `C#CCn1c(=NC(=O)c2cc(-c3cccs3)nc3ccccc23)sc2cc(S(N)(=O)=O)ccc21`, the Potency was inconclusive: 56.2 µM [inhibitor, partial curve, poor fit].
`C=CCNC(=O)c1ccc2nc(-c3ccco3)c(-c3ccco3)nc2c1` was tested, and the Potency was inconclusive: 31.6 µM [inhibitor, full curve, poor fit].
With `O=C(c1ccc(F)cc1)c1cc2ccc(O)cc2oc1=O` the Potency was inconclusive: 31.6 µM [inhibitor, partial curve, poor fit].
With `Cn1c(N)c(C(=O)COC(=O)c2ccccc2C(=O)c2ccc(Cl)c([N+](=O)[O-])c2)c(=O)n(C)c1=O` the Potency was “inactive”.
With `Cc1ccc(CNc2nc(-c3ccco3)nn2S(C)(=O)=O)cc1` the Potency was “inactive”.
With `C=CCn1c(SCC#N)nc2ccc(Cl)cc2c1=O` the Potency was “inactive”.
For `COc1ccc(-c2nc3cc(C(C)C)ccc3o2)cc1NC(=O)c1ccccc1[N+](=O)[O-]`, the Potency was “inactive”.
`Cn1c(SCC(=O)Nc2ccccc2)nnc1-c1ccccc1` was tested, and the Potency was “inactive”.
`COc1ccc(C)cc1NC(=O)CN1c2ccccc2S(=O)(=O)c2ccccc21` was tested, and the Potency was inconclusive: 89.1 µM [inhibitor, partial curve].
`COC(=O)c1ccc(N2NC(=O)/C(=C/c3ccc(OC)c(OC)c3)C2=O)cc1` was tested, and the Potency was inconclusive: 15.8 µM [inhibitor, partial curve, poor fit].
For `CCn1c(/C=C/c2ccc(O)c(O)c2)nc2ccccc2c1=O`, the Potency was inconclusive: 28.2 µM [inhibitor, partial curve, poor fit].
For `Cc1ccc2[nH]c3c(=O)n(CC(=O)NCc4ccco4)ncc3c2c1`, the Potency was inconclusive: 89.1 µM [inhibitor, single point].
For `CCN(CC)C(=O)[C@H]1C[C@H](CC(=O)NCc2cccc(C(F)(F)F)c2)C(=O)N2CCc3c([nH]c4cc(-c5ccco5)ccc34)[C@]12C`, the Potency was inconclusive: 25.1 µM [inhibitor, single point].
For `COc1ccc(NC(=O)CC2SC(N3CCOCC3)=NC2=O)c(OC)c1` (stereo unspecified), the Potency was inconclusive: 56.2 µM [inhibitor, partial curve, poor fit].
With `COc1ccccc1NC(=O)N1CCN(Cc2ccc3c(c2)OCO3)CC1` the Potency was inconclusive: 89.1 µM [inhibitor, single point].
`C=CCn1c(SCc2ccccc2C#N)nnc1-c1cc(Br)ccc1O` was tested, and the Potency was inconclusive: 44.7 µM [inhibitor, partial curve, poor fit].
`CCN(CC)CCOc1cc2c(nn1)Oc1ccccc1N2C` was tested, and the Potency was inconclusive: 14.1 µM [inhibitor, full curve, poor fit].
`CC(O)C1CCC2C3CCC4CC(O)CCC4(C)C3C(=O)CC12C` (stereo unspecified) was tested, and the Potency was “inactive”.
In the case of `O=c1c2c(-c3cccs3)csc2[nH]c(=S)n1-c1ccccc1`, the Potency is reported as inconclusive: 63.1 µM [inhibitor, partial curve, poor fit].
In the case of `COCc1nnc(NC(=O)CCCCCN2C(=O)c3ccccc3C2=O)s1`, the Potency is reported as inconclusive: 20 µM [inhibitor, partial curve, poor fit].
For `O=C(O)CN1C(=O)/C(=C\C(Br)=C\c2ccccc2)SC1=S`, the Potency was inconclusive: 5.01 µM [inhibitor, full curve, poor fit].
With `COc1ccc(C)cc1Nc1nc(-c2c(C)[nH]c3ccccc23)cs1` the Potency was inconclusive: 39.8 µM [inhibitor, single point].
For `O=C(COc1ccc(Cl)cc1)Nc1ncc([N+](=O)[O-])s1`, the Potency was “inactive”.
In the case of `C#CCOCCOCCOCCNc1nc(N2CCN(C(=O)CCCCCCCCCCNC(=O)[C@H]([C@@H](C)CC)n3cc(CCCCN=C(N)N)nn3)CC2)nc(N2CCN(C(=O)CCCCCCCCCCNC(=O)[C@H](CO)n3cc(CCCSC)nn3)CC2)n1`, the Potency is reported as inconclusive: 35.5 µM [inhibitor, single point].
With `O=C(COc1ccc(F)c(Cl)c1)Nc1ccc(N2CCOCC2)cc1` the Potency was “inactive”.
With `CCOC(=O)[C@H]1[C@H]2COc3ccc(Br)cc3[C@@H]2N2C(=O)CN(Cc3ccco3)C(=O)[C@@]12C` the Potency was inconclusive: 44.7 µM [inhibitor, partial curve].
For `COc1ccc2cc3cc(C(=O)N4CCN(c5ccc(C(C)=O)cc5)CC4)sc3nc2c1Cl`, the Potency was “inactive”.
In the case of `COc1ccc(C(=O)Nc2cc(-c3cccc(C)c3)nn2-c2ccccc2)cc1`, the Potency is reported as “inactive”.
With `CC1COc2ccccc2N1C(=O)c1ccc(F)cc1` (stereo unspecified) the Potency was inconclusive: 89.1 µM [inhibitor, single point].
In the case of `OCCN(Cc1ccccc1)Cc1cccc(Cl)c1Cl`, the Potency is reported as “inactive”.
In the case of `Oc1ccc(-c2csc(Nc3ncccn3)n2)cc1O`, the Potency is reported as active: 31.6 µM.
With `CCOC(=O)c1ccc(NC(=O)c2c(NCc3cccs3)sc3c2CCCCC3)cc1` the Potency was inconclusive: 15.8 µM [inhibitor, full curve, poor fit].
With `O=S(=O)(NCc1nc2cccnc2n1Cc1ccc(F)cc1)c1ccc2c(c1)CCCC2` the Potency was “inactive”.
For `Nc1sc2c(c1C(=O)c1ccccc1)CCCC2`, the Potency was “inactive”.
In the case of `CCN1C(=O)[C@H]2[C@@H](c3ccc(-c4ccc(Cl)c(Cl)c4)c(OC)c3)N[C@@](C)(C(=O)OC)[C@H]2C1=O`, the Potency is reported as inconclusive: 44.7 µM [inhibitor, partial curve, poor fit].
In the case of `CN(Cc1ccccc1)c1nc2c(c(=O)[nH]c(=O)n2C)n1C`, the Potency is reported as inconclusive: 100 µM [inhibitor, single point].
For `O=C(O)C1C2C=CC(C2)C1C(=O)NCc1ccoc1` (stereo unspecified), the Potency was inconclusive: 25.1 µM [inhibitor, full curve].
In the case of `COC(=O)c1ccc(NC(=O)COc2coc(CN3CCc4ccccc43)cc2=O)cc1`, the Potency is reported as inconclusive: 15.8 µM [inhibitor, partial curve, poor fit].
In the case of `S=c1[nH]c2ccccc2n1CCOc1ccccc1`, the Potency is reported as “inactive”.
With `CN(C)c1ccc(N=Cc2cccn2C)cc1` the Potency was inconclusive: 39.8 µM [inhibitor, single point].
In the case of `Cn1nnnc1SCCNCc1ccccc1OCc1ccccc1F`, the Potency is reported as inconclusive: 100 µM [inhibitor, single point].
For `COc1ccc(C(=O)N[C@H](C(=O)Nc2sccc2C(N)=O)C(C)C)cc1`, the Potency was “inactive”.
`Nc1ncnc2c1ncn2C1O[C@H](CO)[C@@H](O)[C@@H]1O` (stereo partly specified) was tested, and the Potency was “inactive”.
In the case of `COc1ccccc1-n1cc(-c2ccc(Br)cc2)[nH]c1=S`, the Potency is reported as inconclusive: 56.2 µM [inhibitor, partial curve, poor fit].
`COc1ccc(S(=O)(=O)N2c3ccccc3NC(=O)CC2C)cc1` (stereo unspecified) was tested, and the Potency was inconclusive: 89.1 µM [inhibitor, partial curve, poor fit].
In the case of `O=C(O)CNc1nc(-c2ccccc2)nc2ccccc12`, the Potency is reported as inconclusive: 79.4 µM [inhibitor, partial curve, poor fit].
`CCc1ccc(OCCCSc2nc(-c3ccc(C(C)(C)C)cc3)nc3cc(=O)[nH]n23)cc1` was tested, and the Potency was inconclusive: 79.4 µM [inhibitor, single point].
In the case of `Cc1sc(-n2cccc2)c(C(=O)O)c1C`, the Potency is reported as inconclusive: 20 µM [inhibitor, full curve, poor fit].
In the case of `COc1ccc(C(C(N)=O)c2ncc(C(F)(F)F)cc2Cl)cc1OC` (stereo unspecified), the Potency is reported as inconclusive: 100 µM [inhibitor, single point].
`COc1ccc2c(c1)CC(NC(=O)Nc1cc(Cl)ccc1OC)CO2` (stereo unspecified) was tested, and the Potency was “inactive”.
For `Cc1c(-c2ccccc2)nc(N)c(C#N)c1-c1cccnc1`, the Potency was inconclusive: 39.8 µM [inhibitor, single point].
In the case of `CN(C)CCCOC(=O)c1ccc(Cl)cc1Cl`, the Potency is reported as inconclusive: 25.1 µM [inhibitor, partial curve, poor fit].
In the case of `CCCN(C(=O)CSc1nc2cc(S(=O)(=O)N(CC)CC)ccc2o1)C1CCS(=O)(=O)C1` (stereo unspecified), the Potency is reported as inconclusive: 35.5 µM [inhibitor, full curve, poor fit].
In the case of `CCc1ccc(NC(=O)c2cc(S(=O)(=O)N3CCCCCC3)ccc2F)cc1`, the Potency is reported as “inactive”.
With `O=C(CSc1nnc(-c2ccc(F)cc2)c2ccccc12)NCC1CCCO1` (stereo unspecified) the Potency was inconclusive: 11.2 µM [inhibitor, partial curve, poor fit].
`COc1ccccc1C(=O)NCC(=O)OC(C)C(=O)NC1CCCCC1C` (stereo unspecified) was tested, and the Potency was inconclusive: 112 µM [inhibitor, partial curve, poor fit].
